Patent publication US20050071891A1, “Repressible sterility of animals” (priority 1999, published 2005)
At least one structure is not confirmed: it was looked up by name or label, or the drawing left a doubt.

Key:
HoxCG1 = test: Reversible arrested oyster larval development with tetracycline-responsive plasmid; type: in vivo; details: added to the water, embryos transfected with the repressible construct
Excerpt: The second Sterile Feral Construct tested for oysters, expresses the tTA under the Drosophila HSP. The tTA then drives expression of red fluorescent protein and double stranded oyster Hox via the TRE. Three separate fragments were ligated together to form this construct. The first fragment was obtained by digestion of pBiT(dHSP)-EGFP, (Seq ID NO:19), with HindIII and NheI followed by gel purification of the appropriate fragment containing the Drosophila HSP promoter. The second fragment was obtained by digesting pBiT(dHSP)-EGFP with NotI and MluI followed by gel purification of the appropriate fragment containing the TRE. The third fragment was obtained by digesting pHSP-oHoxDS/BH with MluI and. SpeI and gel purifying the appropriate fragment containing the 510 bp fragment of the zBMP2 cDNA from sequence 301-810 in the published cDNA sequence (Lee et al., 1998). The fourth fragment was obtained by firstly subcloning into pGEM3zf a KpnI/XbaI fragment containing the coding region of red fluorescent protein (RFP) that was excised from pDsRed1-N1 (Clontech, PT3405-5) vector. The resulting plasmid was then subjected to digestion with HindIII and PspOMI and the appropriate fragment containing the coding region of RFP was then gel purified from this reaction. […]

[1] = system: oyster heart primary cell culture; test: Tet-Off control of EGFP expression in oyster cell culture; type: cell-based; details: 1 μg/ml, pTet-Off + pBI-EGFP cells
oyster larvae = test: Regulation of EGFP expression using doxycycline in oyster larvae; type: in vivo; details: 5 μg/μl, larvae transfected with pBiT(HSP)-EGFP

For `C[C@H]1c2cccc(O)c2C(=O)C2=C(O)[C@]3(O)C(=O)C(C(N)=O)=C(O)[C@@H](N(C)C)[C@@H]3[C@@H](O)[C@@H]21` [doxycycline], the “effect of doxycycline on developmental arrest” value (HoxCG1) was “virtually prevented the developmental arrest”, the “effect of doxycycline on EGFP reporter gene expression” value [1] was “complete repression” and the “effect of doxycycline on EGFP expression levels” value (oyster larvae) was “dropped to levels equal to that of non-transfected embryos”.
